Laboratory results published in patent US20050053985A1.
These are yes or no findings as the source states them, for the method shown. In cells and extracts the contact can be indirect. Some entries that bind do so weakly or less than the wild type. Sequences can lack the tags named with a protein.

The chains behind the UniProt entries cited, without tags or fusion partners.
UniProt O95639: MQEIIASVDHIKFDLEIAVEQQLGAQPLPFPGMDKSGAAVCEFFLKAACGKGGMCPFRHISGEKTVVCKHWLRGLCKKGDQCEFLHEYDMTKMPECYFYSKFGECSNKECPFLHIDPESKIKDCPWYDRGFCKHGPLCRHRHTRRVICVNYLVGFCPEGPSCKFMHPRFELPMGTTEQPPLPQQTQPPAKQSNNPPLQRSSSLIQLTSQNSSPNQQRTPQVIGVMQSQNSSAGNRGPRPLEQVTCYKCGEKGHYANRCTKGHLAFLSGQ

Key:
[1] = target: CPSF30 (30 kD factor 4) (human) (UniProt O95639); test: co-purification (anti-Flag then Ni beads), SDS-PAGE, Western blot
HsSen15 (human) = target: T1, HsSen15 (human) (UniProt Q8WW01); test: co-purification with the His-Flag-tagged bait from stable 293 cells (anti-Flag beads, then Ni beads); SDS-PAGE, silver staining
T1 sequence (looked up): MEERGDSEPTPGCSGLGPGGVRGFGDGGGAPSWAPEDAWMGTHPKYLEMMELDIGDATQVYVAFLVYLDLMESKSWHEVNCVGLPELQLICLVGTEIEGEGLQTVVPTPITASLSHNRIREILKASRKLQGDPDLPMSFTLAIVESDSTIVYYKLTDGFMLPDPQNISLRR

HsSen2 (human) = target: T2, HsSen2 (human) (UniProt Q8NCE0); test: as above
T2 sequence (looked up): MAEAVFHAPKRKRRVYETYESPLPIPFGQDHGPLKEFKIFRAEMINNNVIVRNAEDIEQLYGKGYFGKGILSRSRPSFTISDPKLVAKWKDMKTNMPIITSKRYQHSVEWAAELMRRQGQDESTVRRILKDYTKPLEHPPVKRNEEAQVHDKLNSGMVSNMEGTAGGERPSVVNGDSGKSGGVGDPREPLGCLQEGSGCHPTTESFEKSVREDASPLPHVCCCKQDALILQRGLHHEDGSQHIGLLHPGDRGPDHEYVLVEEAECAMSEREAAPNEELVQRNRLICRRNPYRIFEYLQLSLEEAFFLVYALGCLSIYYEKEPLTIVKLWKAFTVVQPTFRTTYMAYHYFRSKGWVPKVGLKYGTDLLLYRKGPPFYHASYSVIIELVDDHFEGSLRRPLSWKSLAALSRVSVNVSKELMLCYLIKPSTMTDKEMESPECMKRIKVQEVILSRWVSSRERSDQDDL

HsSen34 (human) = target: T3, HsSen34 (human) (UniProt Q9BSV6); test: as above
T3 sequence (looked up): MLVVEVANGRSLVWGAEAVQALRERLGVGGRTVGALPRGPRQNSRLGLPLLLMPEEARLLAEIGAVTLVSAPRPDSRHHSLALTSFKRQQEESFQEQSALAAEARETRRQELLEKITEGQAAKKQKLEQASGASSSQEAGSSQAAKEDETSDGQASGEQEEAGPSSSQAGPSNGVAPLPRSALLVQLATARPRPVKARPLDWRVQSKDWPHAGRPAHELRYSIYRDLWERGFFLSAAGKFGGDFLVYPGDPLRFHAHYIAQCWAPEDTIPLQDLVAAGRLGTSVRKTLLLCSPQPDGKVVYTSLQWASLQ

HsSen54 (human) = target: T4, HsSen54 (human) (UniProt Q7Z6J9); test: as above
T4 sequence (looked up): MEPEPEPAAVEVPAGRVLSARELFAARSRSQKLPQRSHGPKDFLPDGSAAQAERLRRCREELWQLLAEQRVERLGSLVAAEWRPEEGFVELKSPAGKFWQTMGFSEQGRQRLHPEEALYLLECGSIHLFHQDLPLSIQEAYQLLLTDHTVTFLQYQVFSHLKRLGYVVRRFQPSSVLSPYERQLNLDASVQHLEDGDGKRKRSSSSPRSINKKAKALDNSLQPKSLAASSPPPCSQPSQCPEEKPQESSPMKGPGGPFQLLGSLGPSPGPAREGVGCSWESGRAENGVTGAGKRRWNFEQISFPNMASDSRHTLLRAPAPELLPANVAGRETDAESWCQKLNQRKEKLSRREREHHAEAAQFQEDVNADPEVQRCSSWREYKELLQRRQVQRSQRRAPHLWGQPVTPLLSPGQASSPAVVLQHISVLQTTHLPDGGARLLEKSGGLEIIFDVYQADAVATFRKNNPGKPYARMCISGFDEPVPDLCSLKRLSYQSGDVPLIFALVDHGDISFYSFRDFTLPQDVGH

[2] = target: T5, CstF64 (64 kD subunit 2) (human) (UniProt P33240); test: co-purification with the His-Flag-tagged bait from stable 293 cells (anti-Flag beads, then Ni beads); SDS-PAGE, Western blot with anti-CstF64 antibody
T5 sequence (looked up): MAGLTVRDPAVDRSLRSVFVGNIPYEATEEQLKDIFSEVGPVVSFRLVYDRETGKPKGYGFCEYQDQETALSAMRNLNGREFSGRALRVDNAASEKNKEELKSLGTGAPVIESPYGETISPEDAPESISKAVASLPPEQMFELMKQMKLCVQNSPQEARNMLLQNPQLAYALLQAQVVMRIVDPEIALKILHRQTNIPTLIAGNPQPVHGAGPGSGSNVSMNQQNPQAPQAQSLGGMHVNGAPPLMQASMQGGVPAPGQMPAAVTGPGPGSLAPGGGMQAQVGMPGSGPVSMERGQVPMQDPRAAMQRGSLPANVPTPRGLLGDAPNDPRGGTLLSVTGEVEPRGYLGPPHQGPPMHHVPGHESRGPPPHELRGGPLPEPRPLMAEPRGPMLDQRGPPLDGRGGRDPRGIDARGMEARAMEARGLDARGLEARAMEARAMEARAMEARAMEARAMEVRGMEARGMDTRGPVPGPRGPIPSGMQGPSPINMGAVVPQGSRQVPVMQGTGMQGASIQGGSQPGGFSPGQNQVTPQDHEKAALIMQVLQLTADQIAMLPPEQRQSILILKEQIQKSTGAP

Measured: binding

B1: His-Flag-HsClp1 (protein, human, UniProt Q92989 1-425, looked up, not shown: small tags and cut ends)
chain: MGEEANDDKKPTTKFELERETELRFEVEASQSVQLELLTGMAEIFGTELTRNKKFTFDAGAKVAVFTWHGCSVQLSGRTEVAYVSKDTPMLLYLNTHTALEQMRRQAEKEEERGPRVMVVGPTDVGKSTVCRLLLNYAVRLGRRPTYVELDVGQGSVSIPGTMGALYIERPADVEEGFSIQAPLVYHFGSTTPGTNIKLYNKITSRLADVFNQRCEVNRRASVSGCVINTCGWVKGSGYQALVHAASAFEVDVVVVLDQERLYNELKRDLPHFVRTVLLPKSGGVVERSKDFRRECRDERIREYFYGFRGCFYPHAFNVKFSDVKIYKVGAPTIPDSCLPLGMSQEDNQLKLVPVTPGRDMVHHLLSVSTAEGTEENLSETSVAGFIVVTSVDLEHQVFTVLSPAPRPLPKNFLLIMDIRFMDLK
binds: [1] | HsSen15 (human) | HsSen2 (human) | HsSen34 (human) | HsSen54 (human) | [2]
